Data as given in PubChem BioAssay AID720505 (Drosophila RNAi Screening Center, 2013).
Screen: 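Knock-downs that reduce calcium influx once internal stores are emptied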 (primary screen). Cells: Drosophila S2R+ cells. Reagent: long dsRNA against Drosophila genes. Treatment: thapsigargin (2 µM) in calcium-free buffer to empty internal stores, then 2 mM calcium added back. Measured: 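Fluo-4 signal in 384-well plates read on a FLIPR after thapsigargin (2 µM, calcium-free) store depletion and 2 mM calcium add-back; unnormalised mean endpoint per well; screen run twice, selected wells retested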. Direction: calcium signal and retest calcium signal: higher = more calcium entry after store depletion. Hit rule: 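About 1500 genes called as lowering calcium entry, by varying amounts, judged against per-plate control wells with STIM1 as positive and Rho1 as negative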. Meaning of the calls: active = called as lowering calcium entry; inactive = not called.
The screen tested about 20,000 reagents; below is a random part of those with a known target gene and a result. Over the whole deposit, about 2,100 (10%) were called active. 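Raw plate signals without normalisation; calls rest on control-based scores that were not deposited; replicate 2 separates called from uncalled poorly.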 Unmarked entries are inactive. A plus sign joins genes that one reagent is predicted to hit. Reagent sequences are not shown. Not given: the amount of reagent, the time to read-out.

gene knocked down | DRSC id | calcium signal, replicate 1 | calcium signal, replicate 2 | retest calcium signal, replicate 1 | retest calcium signal, replicate 2
Act5C | DRSC17723 | 208 | 128 | – | –
CG18095 | DRSC01948 | 136 | 167 | – | –
mas | DRSC08720 | 64.3 (active) | 112 | – | –
Nepl10 | DRSC07212 | 120 | 141 | – | –
CG14926 | DRSC02409 | 165 | 155 | – | –
Ir7d | DRSC18010 | 54.8 (active) | 297 | – | –
CG33159 | DRSC08199 | 104 | 111 | – | –
iav | DRSC18363 | 278 | 153 | – | –
Art6 | DRSC16583 | 108 | 137 | – | –
CG3842 | DRSC18326 | 121 | 86.3 | – | –
CG5973 | DRSC02918 | 139 | 241 | – | –
l(2)37Bb | DRSC02088 | 159 | 119 | 143 | 113
CG5885 | DRSC02910 | 129 | 99.5 | – | –
Acp36DE | DRSC01860 | 72.5 (active) | 128 | – | –
CG15822 | DRSC08482 | 37 (active) | 85.7 | – | –
CG15822 | DRSC08483 | 76.4 | 87.7 | – | –
CG13711 | DRSC08320 | 110 | 78 | – | –
Art7 | DRSC04588 | 131 | 201 | – | –
CG1632 | DRSC18110 | 201 | 101 | – | –
CG11905 | DRSC09863 | 93.6 | 138 | – | –
CG7194 | DRSC10784 | 60.9 | 64.9 | – | –
CG17272 | DRSC15211 | 202 | 150 | – | –
CG14811 | DRSC17962 | 118 | 184 | – | –
mei-P22 | DRSC11366 | 81.5 | 83.5 | – | –
Cnep1r2 | DRSC10950 | 80.2 | 92.7 | – | –
eIF4E5 | DRSC10975 | 81 | 61.2 | – | –
Sras | DRSC11287 | 126 | 76 | – | –
ND-ASHI | DRSC18291 | 187 | 121 | – | –
CG6220 | DRSC06969 | 129 | 218 | – | –
TyrRS-m | DRSC04286 | 163 | 75.3 | – | –
bnb | DRSC20314 | 165 | 105 | – | –
obst-A | DRSC20543 | 103 | 146 | – | –
TM9SF3 | DRSC09747 | 106 | 78.7 | – | –
MAN1 | DRSC04342 | 191 | 90.7 | – | –
dany | DRSC04141 | 184 | 88 | – | –
CG2608 | DRSC02709 | 110 | 128 | – | –
CG33322 | DRSC03204 | 179 | 80.4 | – | –
CG10911 | DRSC06008 | 177 | 140 | – | –
CG10943 | DRSC09805 | 113 | 62.8 | – | –
Alp6 | DRSC06710 | 204 | 135 | – | –
CG17159 + CG17162 | DRSC20899 | 74.9 (active) | 159 | – | –
CG17159 + CG17162 | DRSC20900 | 62.4 (active) | 181 | – | –
CG14285 | DRSC14766 | 157 | 129 | – | –
PGRP-SB2 | DRSC11092 | 105 | 184 | – | –
Mtmr6 | DRSC04046 | 105 | 136 | – | –
CG5882 | DRSC15907 | 159 | 159 | – | –
CG16898 | DRSC06635 | 173 | 130 | – | –
wtrw | DRSC14241 | 72.8 (active) | 92.5 | – | –
wtrw | DRSC15278 | 98.5 | 180 | 5602 | 164
Cyp4e2 | DRSC07371 | 194 | 127 | – | –
fs(1)N | DRSC18578 | 67.5 | 102 | – | –
TyrRS | DRSC10430 | 101 | 107 | – | –
Zip88E | DRSC15562 | 66.3 | 101 | – | –
Idgf6 | DRSC07360 | 101 | 131 | – | –
ATPsynC | DRSC15236 | 56.7 (active) | 44 | – | –
CG14933 + CG42486 | DRSC02415 | 213 | 163 | – | –
Cyp312a1 | DRSC11128 | 88.9 | 154 | – | –
CG2712 | DRSC18589 | 101 | 160 | – | –
CG13196 | DRSC06321 | 136 | 158 | – | –
Miro | DRSC15795 | 124 | 243 | – | –
CG34165 | DRSC01970 | 72.2 (active) | 120 | 71.9 | 91.8
CG9586 | DRSC03270 | 208 | 119 | – | –
CG43673 + CG43672 | DRSC19452 | 73.8 | 110 | – | –
CG43673 + CG43672 | DRSC20108 | 80.7 | 127 | – | –
Gp93 | DRSC15827 | 111 | 134 | – | –
MnM | DRSC08423 | 69.5 | 111 | – | –
Tsp42Er | DRSC06183 | 102 | 74.6 | – | –
CG14205 | DRSC19560 | 156 | 81.1 | – | –
CG14543 | DRSC14887 | 187 | 102 | – | –
CG18284 | DRSC02661 | 64.5 (active) | 115 | – | –
CG18284 | DRSC20756 | 94.3 | 8903 | – | –
Pu | DRSC04645 | 165 | 74.5 | – | –
CG13842 | DRSC14692 | 135 | 142 | – | –
CG11699 | DRSC19419 | 98 | 125 | – | –
Snrk | DRSC07192 | 195 | 123 | – | –
Snrk | DRSC23332 | 103 | 135 | – | –
crq | DRSC00810 | 85.7 | 133 | – | –
CG5674 | DRSC02874 | 110 | 141 | – | –
CG5674 | DRSC23176 | 139 | 133 | – | –
Cpsf73 | DRSC16291 | 227 | 166 | – | –
Tsp3A | DRSC18656 | 96.9 | 130 | – | –
Pi3K92E | DRSC16788 | 155 | 214 | – | –
CG5687 | DRSC08568 | 115 | 99.9 | – | –
CG3902 | DRSC10387 | 88.3 | 129 | – | –
MCPH1 | DRSC06309 | 154 | 157 | – | –
MCPH1 | DRSC07308 | 41.8 (active) | 142 | – | –
MCPH1 | DRSC22536 | 124 | 135 | – | –
Plp | DRSC10006 | 100 | 216 | – | –
Plp | DRSC10333 | 106 (active) | 110 | – | –
Plp | DRSC10700 | 99.7 | 117 | – | –
CG32640 + CG32641 | DRSC22885 | 135 | 188 | – | –
hid | DRSC11316 | 93.5 | 210 | – | –
yellow-f | DRSC15348 | 105 | 95.7 | – | –
CG31819 | DRSC01532 | 155 | 97.7 | – | –
sktl | DRSC04715 | 153 | 79.2 | – | –
rno | DRSC08584 | 95.3 | 135 | – | –
CG2964 | DRSC00554 | 145 | 88 | – | –
CG8944 | DRSC20128 | 157 | 104 | 5955 | 142
CG8944 | DRSC21342 | 123 | 119 | – | –
sprt | DRSC07323 | 134 | 113 | – | –
Dic3 | DRSC06058 | 104 | 89.9 | – | –
CG7551 | DRSC10876 | 92.9 | 89.7 | – | –
CG14104 | DRSC10106 | 104 | 92.5 | – | –
CG10588 | DRSC11628 | 85.2 | 163 | – | –
CG31999 | DRSC17131 | 122 | 168 | – | –
CG31999 | DRSC17133 | 128 | 178 | – | –

As entered above:
hid [DRSC11316], calcium signal, replicate 2 → 210
MCPH1 [DRSC07308], calcium signal, replicate 2 = 142 (active)
Entry of mas [DRSC08720] under “calcium signal, replicate 2”: 112 (active)
MnM [DRSC08423], calcium signal, replicate 1: 69.5
Entry for CG1632 [DRSC18110] in “calcium signal, replicate 1”: 201
CG5973 [DRSC02918], calcium signal, replicate 2 = 241
